# Results from PubChem BioAssay AID493014 (National Center for Advancing Translational Sciences (NCATS), 2011).
# The list shows a part of the results. Shown are side measurements of this screen, not its main read-out; they come without a call. Compounds called inactive in the main read-out are mostly missing here. Potencies come from curve fits of mixed quality, noted in brackets.
# Assay: qHTS Assay to Find Inhibitors of Chronic Active B-Cell Receptor Signaling
# Settings: ABC-DLBCL IkBa-CBG/CBR reporter, luminescence ratio (green luciferase fused to IkBa over red control in TMD8 lymphoma cells), 4 h
# In short: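 TMD8 human ABC-DLBCL cells with doxycycline-inducible IκBα–green luciferase fusion and unfused red luciferase, in 0.5% FBS medium; compounds up to 46 uM, 4 h at 37C. Green/red luminescence ratio, filter-overlap corrected, fitted to concentration-response curves.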
# [1] = measured here: CBR red luminescence, cell number
# [2] = measured here: IkBa-CBG green luminescence
Structure (SMILES),AC50 [1],AC50 [2]
COc1ccc(NC(=O)c2ccccc2NS(C)(=O)=O)cc1OC,"29.1 µM [falling, single point]",–
CCC(C)n1cnc2c(c1=O)c1nc3ccccc3nc1n2Cc1ccc(OC)cc1 (stereo not drawn),"35.5 µM [falling, single point]",–
Nc1nn2c(C(F)(F)F)cc(=O)[nH]c2c1N=Nc1cccc(F)c1,"0.251 µM [falling, full curve]",–
O=C(N/N=C\c1ccncc1)c1ccc(Cl)s1,"12.6 µM [falling, partial curve]",–
COc1ccc(C(=O)NC(=S)NC2CCSC2=O)cc1 (stereo not drawn),–,"20.6 µM [falling, single point]"
N#Cc1cc(NC2CCCC2)c([N+](=O)[O-])cc1C#N,"6.51 µM [rising, partial curve]",–
COC(=O)c1cccc(NC(=O)CSc2ncn[nH]2)c1,"13 µM [falling, partial curve, poor fit]",–
Cc1cccc(/C(N)=N/OC(=O)COc2ccc(Cl)c(C)c2)c1,"29.1 µM [rising, single point]",–
CSc1oc(-c2ccccc2)nc1S(=O)(=O)c1ccc(F)cc1,"12.6 µM [falling, partial curve, poor fit]",–
CCS(=O)(=O)Nc1ccc(C(=O)c2ccccc2)cc1,"29.1 µM [falling, single point]",–
Cc1ccc(-n2nc3c(SCCN4CCOCC4)nnc(C)c3c2C)cc1,"18.4 µM [falling, single point]",–
Cc1cccn2c(=O)c3cc(C(=O)N4CCN(Cc5ccccc5)CC4)sc3nc12,"2.91 µM [rising, single point]",–
CC(C)(C)c1ccc(C(=O)NC(=O)COC(=O)c2ccco2)cc1,"7.31 µM [rising, partial curve, poor fit]",–
O=C(O)c1ccc2c(c1)c1c3n2CCNC3CCC1 (stereo not drawn),"17.8 µM [falling, single point]",–
CCOc1cc(CC(=O)N[C@@H](CC(C)C)c2ccccc2N2CCCCC2)ccc1C(=O)O,"17.8 µM [falling, single point]",–
O=C(COC(=O)CSc1ccc(F)cc1)NNC(=O)c1ccc([N+](=O)[O-])cc1,"0.082 µM [rising, full curve, poor fit]",–
O=C1c2ccccc2NC(c2ccc(-c3ccc(F)cc3)o2)N1O (stereo not drawn),"29.1 µM [falling, single point]",–
O=C(Nc1ccc(N2CCOCC2)nc1)c1cccs1,"10 µM [falling, partial curve]",–
COc1cccc(C(=O)NNC(=O)Cc2ccc(Cl)cc2)c1,"7.31 µM [falling, partial curve, poor fit]",–
Cc1ccc(S(=O)(=O)N(C)C)cc1NC(=O)c1ccccc1SCC(=O)N1CCCC1,"23.1 µM [rising, partial curve, poor fit]",–
Cc1ccsc1/C=N/NC(=O)c1sccc1C,"0.447 µM [falling, full curve, poor fit]",–
COc1ccc(NC(=O)C(C)Oc2ccc(/C(C)=N\O)cc2)cc1 (stereo not drawn),"25.9 µM [falling, single point]",–

Structure (SMILES),AC50 [1],AC50 [2]
COc1ccccc1-c1ccc(SCc2ccc(F)cc2)nn1,"10 µM [falling, partial curve]",–
COC(=O)[C@@H](Cc1c[nH]c2ccccc12)NC(=O)C1CCCN(S(=O)(=O)c2ccc(C)cc2)C1 (stereo partly drawn),"25.1 µM [falling, single point]",–
Cc1cccc(-c2nnc(SCC(=O)N3CCCC3)o2)c1,"12.6 µM [falling, partial curve, poor fit]",–
Clc1ccc(OCCCn2ccnc2)c(Br)c1,"0.184 µM [rising, full curve]",–
Cc1ccc(-n2ncc3c(=O)[nH]c(SCC(=O)N4CCC(C)CC4)nc32)cc1C,"0.13 µM [rising, full curve, poor fit]",–
COc1cc(NC(=O)c2cc3ccccc3cc2O)c(OC)cc1Cl,"0.0891 µM [rising, full curve, poor fit]",–
COc1ccccc1CNC(=S)Nc1ccc2nc(N3CCN(C)CC3)cc(C)c2c1,"2.82 µM [falling, full curve, poor fit]",–
N#Cc1cc2c(nc1SCC1COc3ccccc3O1)CCC2 (stereo not drawn),"7.94 µM [rising, partial curve]",–
CCn1c(-c2csc3ccccc23)n[nH]c1=S,"11.6 µM [falling, partial curve]",–
O=c1[nH]c(COc2ccc(Cl)cc2Br)nc2ccccc12,"6.31 µM [rising, single point]",–
Cn1c(N/N=C/c2cc3ccccc3nc2Cl)nc2ccccc21,"29.1 µM [falling, single point]","29.1 µM [falling, single point]"
N#CC1(NC(=O)COC(=O)CCN=C2NS(=O)(=O)c3ccccc32)CCCCC1,"3.55 µM [rising, partial curve, poor fit]",–
CCCCCCOc1ccc(N2C(=O)CC(SCCN)C2=O)cc1 (stereo not drawn),"20 µM [rising, partial curve, poor fit]",–
CCSc1nnc(NC(=O)c2cccnc2Cl)s1,"29.1 µM [falling, single point]",–
Cn1nc(C(F)(F)F)c(C(=O)Nc2ccc(F)cc2F)c1Cl,"11.2 µM [rising, partial curve]",–
Fc1ccc(/C=N/n2c(C3CCCCC3)n[nH]c2=S)cc1,"17.8 µM [rising, single point]",–
CCOc1ccc(NC(=O)CSc2ncc(-c3ccc(F)cc3)n2Cc2ccco2)cc1,"35.5 µM [falling, single point]",–
Cc1ccc(C)c(N2CCN(C(=O)C3CCCCN3S(=O)(=O)c3ccc(F)cc3)CC2)c1 (stereo not drawn),"0.731 µM [rising, full curve, poor fit]",–
COc1ccc(CNc2ncccn2)cc1OC,"35.5 µM [rising, partial curve, poor fit]",–
COc1ccc(Cl)cc1NC(=O)c1cc(-c2ccccc2O)n[nH]1,"1.64 µM [falling, partial curve, poor fit]",–
O=C(CSc1ncnc2ccccc12)Nc1ccc2c(c1)OCCO2,"11.2 µM [falling, partial curve, poor fit]",–
COc1ccccc1/C=C/CN1CCC(n2nccc2NC(=O)CCc2ccccc2)CC1,"10 µM [falling, partial curve, poor fit]",–

# Retrieved by structure from above (two):
Structure (SMILES),AC50 [1],AC50 [2]
CCOc1ccc(NC(=O)CSc2ncc(-c3ccc(F)cc3)n2Cc2ccco2)cc1,"35.5 µM [falling, single point]",–
O=C(N/N=C\c1ccncc1)c1ccc(Cl)s1,"12.6 µM [falling, partial curve]",–

# Next part

Structure (SMILES),AC50 [1],AC50 [2]
Cc1ccc(C)c(N2CCN(S(=O)(=O)c3ccc4c(c3)CCC(=O)N4)CC2)c1,"20 µM [falling, single point]",–
CN(CC(=O)Nc1ncn[nH]1)S(=O)(=O)c1cc(Cl)ccc1Cl,"3.55 µM [rising, single point]",–
COc1cc(CNc2nc3ccccc3n2C)cc(OC)c1OC,"10.3 µM [rising, partial curve, poor fit]",–
CC(=O)Nc1ccc(S(=O)(=O)NNC(=O)COc2ccc(Cl)cc2Cl)cc1,"0.0891 µM [rising, full curve, poor fit]",–
CCOc1ccc(/C=C2\SC(=S)N(CCC(=O)N(CCO)c3ccccc3)C2=O)cc1,"7.94 µM [falling, partial curve]",–
CN1CCN(c2ccccc2NC(=S)NC(=O)c2cc3ccccc3o2)CC1,"11.2 µM [rising, single point]",–
C=CCn1c(CCNC(=O)c2ccccc2F)nnc1SCC(=O)Nc1nc2ccccc2s1,"3.26 µM [falling, single point]",–
Cc1ccc(-c2nc(CS(=O)(=O)CC(=O)NCCCN(Cc3ccccc3)C(C)C)c(C)o2)cc1,"20 µM [falling, single point]",–
O=C(CCSCCc1ccccn1)Nc1cc(F)ccc1F,"35.5 µM [falling, single point]",–
O=C(NNC(=O)c1cccc(Br)c1)C(=O)N1CCCCC1,"29.1 µM [rising, single point]",–
O=C(O)Cn1c(-c2cscn2)nc2ccccc21,"35.5 µM [rising, single point]",–
CC(C)(C)OC(=O)NCCCCCNC(=O)c1nc[nH]c1C(=O)NCCCCCNC(=O)OC(C)(C)C,"20.6 µM [falling, single point]",–
CC(C)c1ccc(CNCCCSc2ncccn2)cc1,"25.1 µM [falling, single point]",–
Cc1nn(-c2ccccc2)c(=S)c2ccccc12,"5.17 µM [rising, full curve, poor fit]","16.4 µM [falling, single point]"
O=C(O)CCC(=O)Nc1ccc(-c2csc(Nc3cccc4ccccc34)n2)cc1,"5.17 µM [falling, partial curve]",–
O=C(CCCc1ccccc1)NCc1ccccc1,"31.6 µM [falling, single point]",–
COc1ccc(C(=O)n2nc(C)cc2C)cc1Br,"7.31 µM [falling, partial curve, poor fit]",–
COc1ccc(N(CC(O)Cn2nnc3ccccc32)S(=O)(=O)c2ccc(C)cc2)cc1 (stereo not drawn),"3.55 µM [rising, single point]",–
Cc1noc(C)c1COc1ccccc1C(=O)NNC(=O)c1ccccc1,"3.66 µM [rising, partial curve, poor fit]",–
Cc1ccc(NC(=O)c2cc(-c3ccccc3O)n[nH]2)cc1C,"12.6 µM [falling, partial curve, poor fit]",–
O=C(CSc1nc2ccccc2s1)N1CCN(C(=O)c2ccco2)CC1,"29.1 µM [falling, single point]",–
NC(=O)c1oc2ccccc2c1NC(=O)c1ccc([N+](=O)[O-])o1,"0.126 µM [falling, full curve, poor fit]",–
